Results taken from the supplement of paper PMC7858590.
Values joined by “and” are separate entries in the source; they are usually repeats but may differ in a detail not shown here. Identical values can stand only once. ± gives the standard deviation of the averaged measurements. Over roughly 3,800 compounds, “cell shape (eccentricity) Z-score vs DMSO control” has its median near 1.1; the lowest 2% begin near -4.7. The list shows a part of the results.

The molecules below were run on human monocyte-derived macrophages (M0) (assay: cell shape (eccentricity) Z-score vs DMSO control; higher = more elongated, M2-like morphology). Conditions: 20 µM; 24 h; macrophage state: M0 (M-CSF).
In the case of CC(=O)OC(c1nc2ccccc2c(=O)n1C1CC2(OC1=O)c1ccccc1N1C(=O)C(C)(C)N(O)C12)C(C)C (stereo unspecified), the “cell shape (Z-score)” value is reported as -0.202.
For O=C1N(c2ccccc2)c2ccccc2C1(Cc1ccncc1)Cc1ccncc1, the “cell shape (Z-score)” value was 2.55.
For COc1ccc(C(O)CNC(=O)/C=C/c2ccccc2)cc1 (stereo unspecified), the “cell shape (Z-score)” value was -1.2 ± 1.9.
For Cc1cc(I)ccc1Nc1c(C(=O)NOCC2CC2)cc(F)c(F)c1F, the “cell shape (Z-score)” value was -2.48.
CNc1cc(OC)c(C(=O)NC2CCN(Cc3ccccc3)C2C)cc1Cl (stereo unspecified) was tested, and the “cell shape (Z-score)” value was -1.61.
O=C(OC1C=C(CO)C2C(OC3OC(CO)C(O)C(O)C3O)OC=CC12O)c1ccc(O)cc1 (stereo unspecified) was tested, and the “cell shape (Z-score)” value was 4.76.
For C=C1CCC2(C(=O)OC3OC(CO)C(O)C(O)C3O)CCC3(C)C(=CCC4C5(C)CC(O)C(OC6OCC(O)C(O)C6OC6OC(CO)C(O)C(O)C6O)C(C)(CO)C5CCC43C)C2C1 (stereo unspecified), the “cell shape (Z-score)” value was 0.275.
With N#Cc1ccc(COC[C@H]2O[C@@H](n3c(NCc4ccc(Cl)c(Cl)c4)nc4c(N)ncnc43)[C@H](O)[C@@H]2O)cc1 the “cell shape (Z-score)” value was 9.18.
Nc1ccc(S(=O)(=O)NC(=O)c2ccccc2)cc1 was tested, and the “cell shape (Z-score)” value was 0.441.
For Cn1cnc2c1c(=O)[nH]c(=O)n2C, the “cell shape (Z-score)” value was 2.56.
With CN1CCC(=C2c3ccccc3CC(=O)c3sccc32)CC1 the “cell shape (Z-score)” value was 4.57.
C=CC1(C)C=C2CCC3C(C)(C)C(O[C@@H]4O[C@@H](CO)[C@H](O)[C@H]4O)CCC3(C)C2CC1O[C@@H]1O[C@H](C)[C@H](O)[C@H](O)[C@H]1O (stereo partly specified) was tested, and the “cell shape (Z-score)” value was 1.11.
For Cc1cc(C(C)(C)C)c(O)c(C(C)(C)C)c1, the “cell shape (Z-score)” value was 2.71.
In the case of COc1cc(O)c(C(=O)CCc2ccc(OC)c(OC)c2)c(OC)c1, the “cell shape (Z-score)” value is reported as 4.56.
With C[C@H](NC(=O)/C(C#N)=C/c1ccc(O)c(O)c1)c1ccccc1 the “cell shape (Z-score)” value was -2.26.
With COc1cc2occc2c(O[C@@H]2O[C@H](CO)[C@@H](O)[C@H](O)[C@H]2O)c1CCC(=O)O the “cell shape (Z-score)” value was 1.86.
With CCCc1cc2c(N3CCN(C4=NCC(C)(C)S4)CC3)ncnc2s1 the “cell shape (Z-score)” value was 1.96.
CC1(C)CC[C@]2(C(=O)O)CC[C@]3(C)C(=CCC4[C@@]5(C)CC[C@H](O)[C@@](C)(CO)C5CC[C@]43C)C2C1 (stereo partly specified) was tested, and the “cell shape (Z-score)” value was 1.23.
COc1cc(/C(C)=C/C(C)O)oc(=O)c1C (stereo unspecified) was tested, and the “cell shape (Z-score)” value was 1.97 ± 0.036.
With O=c1c2cc(O)c(O)cc2oc2cc(O)c(C3O[C@H](CO)[C@H](O)[C@@H](O)[C@H]3O)c(O)c12 (stereo partly specified) the “cell shape (Z-score)” value was 1.95.
With CCCC[C@@H](CC)COC(=O)c1ccccc1O the “cell shape (Z-score)” value was 2.47.
OCCNCCCOc1cccc(Cl)c1Cl was tested, and the “cell shape (Z-score)” value was 4.64.
O=C1c2cc(O)cc(O)c2C(=O)c2c1cc(O)c(C(CO)CCO)c2O (stereo unspecified) was tested, and the “cell shape (Z-score)” value was -1.07.
With C=CC(C)(C)[C@@]12CC(=O)C(=O)N3/C(=C/c4cnc[nH]4)C(=O)N[C@]31N(OC)c1ccccc12 the “cell shape (Z-score)” value was -0.897.
In the case of NC(=O)CCCCn1ccc(N=C(N)NCC(F)(F)F)n1, the “cell shape (Z-score)” value is reported as 1.3.
With O=C1NC(Cc2c[nH]c3ccccc23)C(=O)N2CCCC12 (stereo unspecified) the “cell shape (Z-score)” value was -1.99.
With Oc1ccc(CCCCC(O)CCc2ccc(O)cc2)cc1 (stereo unspecified) the “cell shape (Z-score)” value was 0.0909.
In the case of O=C1CSC(=O)N1, the “cell shape (Z-score)” value is reported as -2.17.
With CS(=O)(=O)NC(=O)CCC/C=C\C[C@H]1C(=O)C[C@@H](O)[C@@H]1/C=C/[C@@H](O)COc1ccccc1 the “cell shape (Z-score)” value was -0.00725.
For COc1c(O[C@@H]2O[C@H](C(=O)O)[C@@H](O)[C@H](O)[C@H]2O)cc2oc(-c3ccccc3)cc(=O)c2c1O, the “cell shape (Z-score)” value was 1.12.
O=c1cc(-c2ccccc2)oc2ccccc12 was tested, and the “cell shape (Z-score)” value was 7.09.
CC1=CC(C/C(C)=C/COc2ccc3ccc(=O)oc3c2)OC1=O (stereo unspecified) was tested, and the “cell shape (Z-score)” value was -0.801.
For Cc1ccc(NC(=O)c2cccc(N(C)C)c2)cc1NC(=O)c1ccc(O)cc1, the “cell shape (Z-score)” value was 2.27.
In the case of COc1cc(C2OC(c3cc(OC)c(OC)c(OC)c3)C(C)C2C)cc(OC)c1OC (stereo unspecified), the “cell shape (Z-score)” value is reported as 2.14 ± 4.2.
CCCSc1ccc2[nH]c(NC(=O)OC)nc2c1 was tested, and the “cell shape (Z-score)” value was -3.67.
c1ccc(CN(CC2=NCCN2)c2ccccc2)cc1 was tested, and the “cell shape (Z-score)” value was 1.59.
CCc1ccc(CCOc2ccc(CC3SC(=O)NC3=O)cc2)nc1 (stereo unspecified) was tested, and the “cell shape (Z-score)” value was -0.791.
For O=C(O)c1cc(Oc2ccc([N+](=O)[O-])cc2)cc(Oc2ccc([N+](=O)[O-])cc2)c1, the “cell shape (Z-score)” value was 1.81.
In the case of O=[N+]([O-])c1cc2nc(O)c(O)nc2cc1[N+](=O)[O-], the “cell shape (Z-score)” value is reported as -1.93.
For COc1ccc2c(c1)c1c3n2CCN(C)C3=NCC1, the “cell shape (Z-score)” value was -1.74.
With COc1cccc2c1C(=O)c1c(O)c3c(c(O)c1C2=O)C[C@@](O)(C(C)=O)C[C@@H]3O[C@H]1C[C@H](N)[C@H](O)[C@H](C)O1 the “cell shape (Z-score)” value was 13.
With Fc1cccc(C=NN=Cc2cccc(F)c2)c1 the “cell shape (Z-score)” value was 1.79.
With O=C(/C=C/c1ccccc1)c1ccc(O)cc1O the “cell shape (Z-score)” value was 0.718.
With CN(C)c1ccc(O)c2c1C[C@H]1C[C@H]3[C@H](N(C)C)C(=O)C(C(N)=O)C(=O)[C@@]3(O)C(=O)C1C2=O (stereo partly specified) the “cell shape (Z-score)” value was -0.164.
In the case of CC[C@@H]1C(=O)N(C)c2cnc(Nc3ccc(C(=O)NC4CCN(C)CC4)cc3OC)nc2N1C1CCCC1, the “cell shape (Z-score)” value is reported as 5.51.
For COC(=O)C1=CO[C@@H](O[C@@H]2O[C@H](CO)[C@@H](O)[C@H](O)[C@H]2O)[C@H]2[C@@H]1C=CC21C=C(C(C)O)C(=O)O1 (stereo partly specified), the “cell shape (Z-score)” value was -0.0107.
C/C(=C\Cc1c(O)ccc2cc(O)c(=O)oc12)COC1OC(CO)C(O)C(O)C1O (stereo unspecified) was tested, and the “cell shape (Z-score)” value was 0.97.
CC1OC(OCC2OC(Oc3c(-c4ccc(O)cc4)oc4cc(O)cc(O)c4c3=O)C(O)C(O)C2O)C(O)C(O)C1O (stereo unspecified) was tested, and the “cell shape (Z-score)” value was -1.2.
In the case of CC(C)c1cc2c(cc1O)[C@@]1(C(=O)O)CCCC(C)(C)C1CC2 (stereo partly specified), the “cell shape (Z-score)” value is reported as -0.191 ± 0.02.
With COc1ccc2c(=O)c(-c3ccc(OC)c(OC)c3)coc2c1 the “cell shape (Z-score)” value was 0.814 ± 1.3.
For CCC1(O)CC2CN(CCc3c([nH]c4ccccc34)C(C(=O)OC)(c3cc4c(cc3OC)N(C)C3C(O)(C(=O)OC)C(C(=O)OC)C5(CC)C=CCN6CCC43C65)C2)C1 (stereo unspecified), the “cell shape (Z-score)” value was 8.52.
With C/C=C(/C)C(=O)O[C@H]1CC(C)(C)C[C@H]2C3=CCC4[C@@]5(C)CC[C@H](O[C@@H]6O[C@H](C(=O)O)[C@@H](O[C@@H]7O[C@H](CO)[C@H](O)[C@H](O)[C@H]7O[C@@H]7O[C@H](CO)[C@@H](O)[C@H](O)[C@H]7O)[C@H](O)[C@H]6O[C@@H]6O[C@@H](C)[C@H](O)[C@@H](O)[C@H]6O)C(C)(C)C5CC[C@@]4(C)[C@]3(C)[C@@H](OC(C)=O)[C@@H](O)[C@@]12COC(C)=O (stereo partly specified) the “cell shape (Z-score)” value was 0.487.
With COc1c2c(cc3occ(-c4ccc5c(c4)OCO5)c(=O)c13)OC(C)(C)C=C2 the “cell shape (Z-score)” value was 1.71.
For CC(=O)Nc1ccc(C(=O)Nc2ccccc2N)cc1, the “cell shape (Z-score)” value was -3.16 ± 2.7.
In the case of NC(=O)c1ccccc1O, the “cell shape (Z-score)” value is reported as 0.788.
With COc1cc(-c2ccccn2)nc(/C=N/O)c1[S+](C)[O-] (stereo unspecified) the “cell shape (Z-score)” value was 0.66.
With COc1cc2c(cc1OC)C(c1ccc(N)cc1)=NNC(=O)C2 the “cell shape (Z-score)” value was 3.23.
In the case of COc1c(O)cc2c(c1O)[C@H]1O[C@H](CO)[C@@H](O)[C@H](O)[C@@H]1OC2=O, the “cell shape (Z-score)” value is reported as 2.18.
In the case of Cc1ccc(NC(=O)c2ccc(CN3CCN(C)CC3)cc2)cc1Nc1nc(-c2cccnc2)cs1, the “cell shape (Z-score)” value is reported as 4.44.
CC(C)C[C@H](NC(=O)[C@H](Cc1ccccc1)NC(=O)c1cnccn1)B(O)O was tested, and the “cell shape (Z-score)” value was 4.79 and 4.86.
With CN(C)CCCNc1nc(CN2CCN(C(c3ccc(Cl)cc3)c3ccc(Cl)cc3)CC2)nc2ccccc12 the “cell shape (Z-score)” value was -1.53.
For C[C@H]1[C@H](NC(=O)/C(=N/OC(C)(C)C(=O)O)c2csc(N)n2)C(=O)N1S(=O)(=O)O, the “cell shape (Z-score)” value was 7.08.
In the case of NC(=O)c1ccc(-c2nc(-c3ccc4c(c3)OCCO4)c(-c3ccccn3)[nH]2)cc1, the “cell shape (Z-score)” value is reported as 4.12.
With CN1c2ccccc2C(=O)N2CCc3c([nH]c4ccccc34)C21 (stereo unspecified) the “cell shape (Z-score)” value was -3.89.
With NS(=O)(=O)c1ccc(N/C=C2\C(=O)Nc3ccccc32)cc1 the “cell shape (Z-score)” value was -0.305.
For C[C@@H]1[C@H]2[C@H](OC3O[C@H](CO)[C@@H](O)[C@H](O)[C@H]3O)OC=C(C(=O)O)[C@H]2C[C@@H]1O (stereo partly specified), the “cell shape (Z-score)” value was 1.67.
With CC(C)/N=c1\cc2n(-c3ccc(Cl)cc3)c3ccccc3nc-2cc1Nc1ccc(Cl)cc1 the “cell shape (Z-score)” value was 2.34.
COC(=O)C[C@H]1C(C)(C)[C@H](OC(C)=O)[C@]2(O)CC3=C4CC(=O)O[C@@H](c5ccoc5)[C@]4(C)CCC3[C@@]1(C)C2=O (stereo partly specified) was tested, and the “cell shape (Z-score)” value was -0.876.
With CC(=O)O[C@@H]1CC2C(C)(C)C(=O)C=C[C@]2(C)C2CC[C@@]3(C)[C@H](c4ccoc4)OC(=O)[C@H]4O[C@]43[C@@]21C (stereo partly specified) the “cell shape (Z-score)” value was -4.89.
In the case of CC(=O)[C@@]12O[C@](C)(c3ccccc3)O[C@@H]1CC1C3CCC4=CC(=O)CC[C@]4(C)C3CC[C@@]12C (stereo partly specified), the “cell shape (Z-score)” value is reported as 0.632.
For COC(=O)C[C@H]1C(C)(C)[C@@H](OC(C)=O)[C@@H]2CC3=C4CC(=O)O[C@@H](c5ccoc5)[C@]4(C)CCC3[C@@]1(C)C2=O (stereo partly specified), the “cell shape (Z-score)” value was 2.68.
For CC(=O)O[C@H]1C(=O)[C@@]2(C)[C@H]([C@H](OC(=O)c3ccccc3)[C@]3(O)C[C@H](OC(=O)[C@H](O)[C@@H](NC(=O)c4ccccc4)c4ccccc4)C(C)=C1C3(C)C)[C@]1(OC(C)=O)CO[C@@H]1C[C@@H]2O, the “cell shape (Z-score)” value was -5.5.
In the case of COc1cc(N)c(Cl)cc1C(=O)NC1CCN(CCCOc2ccc(F)cc2)CC1OC (stereo unspecified), the “cell shape (Z-score)” value is reported as -0.721.
With C/C=C(/C)C(=O)OC1Cc2c(ccc3ccc(=O)oc23)OC1(C)C (stereo unspecified) the “cell shape (Z-score)” value was -3.69.
In the case of O=C(/C=C/c1ccccc1)OCC1=CC[C@@H]2C(C(=O)O)=CO[C@@H](O[C@@H]3O[C@H](CO)[C@@H](O)[C@H](O)[C@H]3O)[C@H]12, the “cell shape (Z-score)” value is reported as 1.08.
In the case of C=C1C(=O)OC2C3=C(C)C(=O)CC3C(C)CC(O)C12 (stereo unspecified), the “cell shape (Z-score)” value is reported as -0.0753 ± 3.3.
For CC[C@]1(O)C[C@@H]2CN(CCc3c([nH]c4ccccc34)[C@@](C(=O)OC)(c3cc4c(cc3OC)N(C=O)[C@H]3[C@@](O)(C(=O)OC)[C@H](OC(C)=O)[C@]5(CC)C=CCN6CC[C@]43[C@@H]65)C2)C1, the “cell shape (Z-score)” value was -0.443.
With COc1c(O)c(C(=O)CCc2ccccc2)c(OC)c(OC)c1OC the “cell shape (Z-score)” value was 1.92.
In the case of CC(=O)OC1CC2(C)C(CCC3C4(C)CCC(=O)C(C)C4C(O)C(=O)C32C)/C1=C(\CCC=C(C)C)C(=O)O (stereo unspecified), the “cell shape (Z-score)” value is reported as 3.67 ± 2.6.
With C=C1C(=O)O[C@H]2[C@H]1CC/C(C)=C/CC[C@@]1(C)O[C@@H]21 the “cell shape (Z-score)” value was -3.88.
With COc1cc(C(=O)N2CCOCC2)cc(OC)c1OC the “cell shape (Z-score)” value was 2.78.
